Experimental data reported in article doi:10.1101/2024.08.01.605889.
These are yes or no findings as the source states them, for the method shown. In cells and extracts the contact can be indirect. Some results given as binding are weak or reduced against the parent protein; the word gives no strength.

The chains behind the UniProt entries cited, without tags or fusion partners.
UniProt P14635: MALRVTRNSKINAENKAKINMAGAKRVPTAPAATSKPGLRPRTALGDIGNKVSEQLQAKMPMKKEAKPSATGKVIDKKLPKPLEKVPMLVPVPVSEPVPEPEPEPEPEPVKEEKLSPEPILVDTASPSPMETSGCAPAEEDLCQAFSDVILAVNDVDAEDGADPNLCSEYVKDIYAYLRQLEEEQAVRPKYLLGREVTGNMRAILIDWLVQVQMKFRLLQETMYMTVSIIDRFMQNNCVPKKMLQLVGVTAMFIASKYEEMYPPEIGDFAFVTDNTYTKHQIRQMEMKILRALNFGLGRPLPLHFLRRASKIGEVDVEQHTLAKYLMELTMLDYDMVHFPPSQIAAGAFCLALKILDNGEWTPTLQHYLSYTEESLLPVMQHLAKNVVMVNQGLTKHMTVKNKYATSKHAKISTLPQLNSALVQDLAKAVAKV

Biological target: cyclin B1 (human (endogenous in NCI-H1048 and NCI-H446)) (UniProt P14635)
Assay: co-IP

binding: binds
B1: Myt1 (enzyme, UniProt Q99640 1-499)
chain: MLERPPALAMPMPTEGTPPPLSGTPIPVPAYFRHAEPGFSLKRPRGLSRSLPPPPPAKGSIPISRLFPPRTPGWHQLQPRRVSFRGEASETLQSPGYDPSRPESFFQQSFQRLSRLGHGSYGEVFKVRSKEDGRLYAVKRSMSPFRGPKDRARKLAEVGSHEKVGQHPCCVRLEQAWEEGGILYLQTELCGPSLQQHCEAWGASLPEAQVWGYLRDTLLALAHLHSQGLVHLDVKPANIFLGPRGRCKLGDFGLLVELGTAGAGEVQEGDPRYMAPELLQGSYGTAADVFSLGLTILEVACNMELPHGGEGWQQLRQGYLPPEFTAGLSSELRSVLVMMLEPDPKLRATAEALLALPVLRQPRAWGVLWCMAAEALSRGWALWQALLALLCWLWHGLAHPASWLQPLGPPATPPGSPPCSLLLDSSLSSNWDDDSLGPSLSPEAVLARTVGSTSTPRSRCTPRDALDLSDINSEPPRGSFPSFEPRNLLSLFEDTLDPT
